Values from PubChem BioAssay AID686943 (Drosophila RNAi Screening Center, 2013)

- Purpose: 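Fly genes whose loss alters ERK activation after insulin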 (primary screen)
- Cells: Drosophila S2R+ haemocyte-like cells expressing YFP-tagged ERK (Rolled)
- Reagents: long dsRNA against Drosophila genes
- Conditions: insulin stimulation versus unstimulated cells; dose and duration not given
- Measurement: 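Antibody staining for doubly phosphorylated ERK divided by ERK-YFP signal, as plate z-scores, in insulin-treated and untreated cells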
- Reading the numbers: replicate 1, z-score of dpERK with insulin and replicate 2, z-score of dpERK with insulin: higher = more active ERK per ERK-YFP after insulin; replicate 1, z-score of dpERK under basal conditions: higher = more basal active ERK per ERK-YFP; replicate 1, z-score of ERK-YFP with insulin: higher = more YFP-tagged ERK signal
In all, the deposit lists about 23,000 reagents; shown is a random part of those that have a named target and a result. 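Extra replicates exist only for a retested subset of genes; insulin dose and duration not given; both raised and lowered dpERK matter.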 A plus sign joins genes that one reagent is predicted to hit. Not given: the amount of reagent, the time to read-out.

gene | dsRNA | replicate 1, z-score of dpERK with insulin | replicate 2, z-score of dpERK with insulin | replicate 1, z-score of dpERK under basal conditions | replicate 1, z-score of ERK-YFP with insulin
Prat2 | DRSC09692 | 0.78 | 0.5 | -0.51 | 0.34
Sol1 | DRSC15263 | 0.3 | 0.14 | 0.09 | -0.25
Sol1 | DRSC15271 | 0.29 | 0.26 | -0.31 | 0.2
Sol1 | DRSC15681 | 0.04 | -0.95 | 0.43 | -0.48
NSD | DRSC15691 | -0.04 | -0.07 | -0.51 | -0.17
Lsm10 | DRSC06250 | 0.55 | 1.05 | 0.3 | 0.88
GlcAT-P | DRSC10603 | 0.12 | 1.02 | -0.47 | 0.06
GlcAT-P | DRSC10604 | 3.72 | 3.5 | -2.26 | -3.29
Atg10 + CG18853 + CG12822 | DRSC20757 | 0.51 | 0.42 | -1.69 | 0.92
CG17327 | DRSC15225 | -0.03 | -1.59 | 0.29 | 1.37
CG7518 | DRSC16253 | -0.7 | -0.27 | 0.93 | -0.09
GlnRS | DRSC14140 | 0.15 | -0.07 | 0.35 | -0.26
promL | DRSC08733 | -0.02 | -0.78 | -0.57 | 0.37
CG15719 | DRSC19685 | 0.1 | -0.15 | 0.08 | 0.19
DNAlig1 | DRSC04518 | -0.09 | -0.49 | -1.52 | -1.88
mRpL24 | DRSC03113 | 0.57 | 0.33 | 0.31 | -0.5
CG15147 | DRSC02447 | 0.1 | 0.39 | -0.36 | 0.08
CG15147 | DRSC02448 | -1.04 | -0.32 | 0.85 | 0.44
Ltn1 | DRSC11056 | 0.52 | -0.23 | 3.05 | 0.22
Ltn1 | DRSC11058 | 0.3 | -1.3 | 0.14 | -0.27
CG10939 | DRSC06019 | 0.27 | 1.53 | -0.89 | 0.02
CG10939 | DRSC21734 | 0.08 | 2.46 | 0.26 | 0.1
CG13135 | DRSC02232 | 0.41 | 0.65 | -0.49 | -1.23
CG8180 | DRSC07092 | -0.04 | -0.48 | 1.71 | 0.14
CG8180 | DRSC07093 | -0.09 | -0.71 | -1.82 | 0.82
CG11889 + CG11891 | DRSC14426 | 0.2 | -0.07 | 1.53 | 0.14
CG11889 + CG11891 | DRSC14427 | 0.19 | 0.26 | 0.53 | 0.79
CG30109 | DRSC05675 | 0.04 | 0.08 | 0.75 | -0.05
CG11000 | DRSC12082 | 0.47 | 1.58 | 0.76 | 0.7
CG11000 | DRSC12158 | -0.11 | -0.18 | -0.55 | -0.11
CG14223 | DRSC19580 | -0.35 | -0.04 | -0.1 | -0.26
tyn | DRSC20652 | 1.54 | 0.72 | -0.98 | 0.49
Cdc7 | DRSC18428 | 0.36 | 0.01 | 2.47 | 0.04
Cdc7 | DRSC18429 | -0.11 | 0.39 | 0.64 | -0.47
Cdc7 | DRSC22133 | 0.88 | 0.03 | 0.23 | -0.27
Had2 | DRSC05971 | 0.02 | -0.04 | 0.46 | 0.33
CG32425 | DRSC11739 | -1.06 | -4.81 | -3.96 | 1.24
CG32425 | DRSC11764 | -0.62 | -0.39 | -0.11 | -0.18
Traf4 | DRSC00445 | 2.77 | 0.58 | -2.34 | 0.61
Traf4 | DRSC00794 | 0.1 | 0.49 | -0.19 | -0.81
Ror | DRSC03414 | 0.05 | 0.12 | -0.14 | 0.14
Patr-1 | DRSC14159 | -0.44 | -1.4 | 1.02 | -1.33
Cad86C | DRSC15587 | 0.75 | 0.54 | -0.44 | 0.18
Cad86C | DRSC15611 | -0.73 | -0.08 | 0.11 | 0.71
CG34236 | DRSC05435 | 1 | 0.52 | 0.6 | -0.37
Gmd | DRSC03119 | -0.42 | -0.04 | 0.03 | -0.02
Sardh | DRSC06981 | -1.01 | -1.95 | 1.27 | 0.62
CG42335 | DRSC14597 | 0.8 | -0.74 | 0.38 | -0.68
CG42335 | DRSC15892 | 0.56 | -0.48 | 1.43 | 0.45
CG33642 | DRSC01325 | 1.07 | 0.08 | 0.62 | 0.27
Coa8 | DRSC17959 | 0.44 | -0.83 | -0.52 | 0.2
CG10970 | DRSC17772 | 1 | 0.51 | -0.37 | 0.02
stnB + stnA | DRSC20969 | 0.79 | 1.78 | -0.55 | -0.94
stnB + stnA | DRSC21112 | 0.32 | 0.34 | -0.95 | 0.21
stnB + stnA | DRSC21113 | -0.65 | 0.37 | -0.46 | 0.61
Gp150 | DRSC04618 | 1.19 | 1.36 | -0.25 | -0.81
CG30447 | DRSC05820 | 0.05 | 0.45 | 0.11 | 0.4
CG11737 | DRSC14364 | -0.49 | 0.23 | 0.77 | 0.64
Syx5 | DRSC03432 | 3.15 | 2.1 | -0.52 | -1.38
CG1965 | DRSC12577 | 0.89 | 1.04 | -0.42 | 0.41
CG1965 | DRSC21828 | 0.38 | 1.22 | -0.01 | 0.32
CG13293 | DRSC09967 | -0.01 | 0.08 | -0.95 | -0.04
RpL37-2 | DRSC04584 | 0.59 | 1 | 0.93 | -0.18
RpL10Aa | DRSC15518 | -1.37 | -1.04 | 0.29 | -3.28
lncRNA:CR43498 | DRSC17621 | 0.43 | -0.03 | 0.74 | 0.13
CG1504 | DRSC20513 | -0.87 | -0.68 | -0.34 | -1.04
CG1737 | DRSC19771 | -1.13 | -1 | -0.93 | 0.43
Mtap | DRSC06890 | -0.91 | -0.1 | 1.15 | 0.6
CG10764 | DRSC06000 | 0.14 | -0.12 | -0.5 | 1.67
RanBP3 | DRSC14217 | -0.69 | 0.63 | -0.32 | 1.39
mRpS35 | DRSC08551 | 0.06 | -0.27 | 0.66 | 0.59
CG17361 | DRSC10266 | -1.64 | -1.76 | -0.88 | 0.86
cype | DRSC02356 | 0.7 | -1.33 | -0.87 | 1.04

Part of the list above, set out differently:
{"gene": "CG8180", "dsRNA": "DRSC07092", "replicate 1, z-score of dpERK with insulin": -0.04, "replicate 2, z-score of dpERK with insulin": -0.48, "replicate 1, z-score of dpERK under basal conditions": 1.71, "replicate 1, z-score of ERK-YFP with insulin": 0.14}
{"gene": "CG8180", "dsRNA": "DRSC07093", "replicate 1, z-score of dpERK with insulin": -0.09, "replicate 2, z-score of dpERK with insulin": -0.71, "replicate 1, z-score of dpERK under basal conditions": -1.82, "replicate 1, z-score of ERK-YFP with insulin": 0.82}
{"gene": "CG11889 + CG11891", "dsRNA": "DRSC14426", "replicate 1, z-score of dpERK with insulin": 0.2, "replicate 2, z-score of dpERK with insulin": -0.07, "replicate 1, z-score of dpERK under basal conditions": 1.53, "replicate 1, z-score of ERK-YFP with insulin": 0.14}
{"gene": "CG11889 + CG11891", "dsRNA": "DRSC14427", "replicate 1, z-score of dpERK with insulin": 0.19, "replicate 2, z-score of dpERK with insulin": 0.26, "replicate 1, z-score of dpERK under basal conditions": 0.53, "replicate 1, z-score of ERK-YFP with insulin": 0.79}
{"gene": "CG30109", "dsRNA": "DRSC05675", "replicate 1, z-score of dpERK with insulin": 0.04, "replicate 2, z-score of dpERK with insulin": 0.08, "replicate 1, z-score of dpERK under basal conditions": 0.75, "replicate 1, z-score of ERK-YFP with insulin": -0.05}
{"gene": "CG11000", "dsRNA": "DRSC12082", "replicate 1, z-score of dpERK with insulin": 0.47, "replicate 2, z-score of dpERK with insulin": 1.58, "replicate 1, z-score of dpERK under basal conditions": 0.76, "replicate 1, z-score of ERK-YFP with insulin": 0.7}
{"gene": "CG11000", "dsRNA": "DRSC12158", "replicate 1, z-score of dpERK with insulin": -0.11, "replicate 2, z-score of dpERK with insulin": -0.18, "replicate 1, z-score of dpERK under basal conditions": -0.55, "replicate 1, z-score of ERK-YFP with insulin": -0.11}
{"gene": "CG14223", "dsRNA": "DRSC19580", "replicate 1, z-score of dpERK with insulin": -0.35, "replicate 2, z-score of dpERK with insulin": -0.04, "replicate 1, z-score of dpERK under basal conditions": -0.1, "replicate 1, z-score of ERK-YFP with insulin": -0.26}
{"gene": "tyn", "dsRNA": "DRSC20652", "replicate 1, z-score of dpERK with insulin": 1.54, "replicate 2, z-score of dpERK with insulin": 0.72, "replicate 1, z-score of dpERK under basal conditions": -0.98, "replicate 1, z-score of ERK-YFP with insulin": 0.49}
{"gene": "Cdc7", "dsRNA": "DRSC18428", "replicate 1, z-score of dpERK with insulin": 0.36, "replicate 2, z-score of dpERK with insulin": 0.01, "replicate 1, z-score of dpERK under basal conditions": 2.47, "replicate 1, z-score of ERK-YFP with insulin": 0.04}
